In paper PMC2423471:
These are yes or no findings as the source states them, for the method shown. Binding seen in cells or lysates may run through a third protein. Here binding means that the protein was enriched with, or labelled near, the bait; the list need not be complete.

Target: TAP-tagged AgmISG15 (African Green Monkey (Cercopithecus aethiops))
Experiment: affinity purification with mass spectrometry; Tandem Affinity Purification of TAP-tagged ISG15 from 2fTGH (stable) or HekT (transient) lysates: IgG sepharose, TEV cleavage, anti-FLAG agarose, FLAG peptide elution, trypsin, nano-LC-MS/MS; the paper takes the hits as covalently ISGylated substrates

B1: Phosphoglycerate mutase 2 (enzyme, UniProt P15259 1-253)
chain: MATHRLVMVRHGESTWNQENRFCGWFDAELSEKGTEEAKRGAKAIKDAKMEFDICYTSVLKRAIRTLWAILDGTDQMWLPVVRTWRLNERHYGGLTGLNKAETAAKHGEEQVKIWRRSFDIPPPPMDEKHPYYNSISKERRYAGLKPGELPTCESLKDTIARALPFWNEEIVPQIKAGKRVLIAAHGNSLRGIVKHLEGMSDQAIMELNLPTGIPIVYELNKELKPTKPMQFLGDEETVRKAMEAVAAQGKAK
For B1, the binding was “binds”.
